This note sets out measurements from article PMC8217502.

Sequences of proteins named here, by UniProt entry; tags and fusion partners are left off. A change or cut given only in a name is not applied to a line headed by its entry.
UniProt Q8IJ66: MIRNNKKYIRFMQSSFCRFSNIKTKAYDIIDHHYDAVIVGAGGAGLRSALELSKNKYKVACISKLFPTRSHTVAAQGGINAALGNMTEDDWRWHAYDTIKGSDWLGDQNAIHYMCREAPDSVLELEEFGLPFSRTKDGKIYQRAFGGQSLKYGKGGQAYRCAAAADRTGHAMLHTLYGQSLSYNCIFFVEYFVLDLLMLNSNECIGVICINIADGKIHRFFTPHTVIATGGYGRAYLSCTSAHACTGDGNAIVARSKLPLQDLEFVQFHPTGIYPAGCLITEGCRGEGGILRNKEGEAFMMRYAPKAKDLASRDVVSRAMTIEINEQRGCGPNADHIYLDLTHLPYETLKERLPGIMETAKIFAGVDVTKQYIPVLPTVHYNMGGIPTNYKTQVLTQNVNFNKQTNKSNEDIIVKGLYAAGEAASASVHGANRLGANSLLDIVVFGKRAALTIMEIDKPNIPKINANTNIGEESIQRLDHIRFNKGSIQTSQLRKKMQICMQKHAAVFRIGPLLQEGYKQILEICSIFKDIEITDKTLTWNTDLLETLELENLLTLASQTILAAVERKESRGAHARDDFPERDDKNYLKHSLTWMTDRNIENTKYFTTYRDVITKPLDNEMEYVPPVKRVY
UniProt Q8I5S5: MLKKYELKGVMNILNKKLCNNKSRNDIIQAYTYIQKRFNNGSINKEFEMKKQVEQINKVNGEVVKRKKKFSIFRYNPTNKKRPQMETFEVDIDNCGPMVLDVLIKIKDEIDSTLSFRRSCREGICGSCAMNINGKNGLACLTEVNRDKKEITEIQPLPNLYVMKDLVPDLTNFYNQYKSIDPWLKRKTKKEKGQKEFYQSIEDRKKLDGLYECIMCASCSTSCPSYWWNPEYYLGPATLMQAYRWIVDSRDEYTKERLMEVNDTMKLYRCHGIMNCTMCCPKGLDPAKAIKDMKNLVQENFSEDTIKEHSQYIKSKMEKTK

These are yes or no findings as the source states them, for the method shown. Binding can be weak; no strength is given.

In the assay the target is SDHA (P. falciparum) (UniProt Q8IJ66). Description: native gel or EMSA; complexome profiling after method 3 only (nitrogen cavitation without saponin, larger amounts of parasites; samples ABS3D and GCT3D), digitonin, BN-PAGE 4-16%, stacking gel also analysed. Background: In EMSA bound probe runs differently from free probe, usually more slowly.

Regarding SDHB (from UniProt Q8I5S5), the binding entry is reported as “binds”.
